Among the data in publication PMC7817835 are binding values, retold here.

These are yes or no findings as the source states them, for the method shown. Binding can be weak; no strength is given. For some of these results: Tags and fused reporters may be left off the sequences shown.

Assay [1] has as its target T1, outer dynein arm intermediate chain IC1 (Chlamydomonas reinhardtii (endogenous in flagella, strain CC-1690)) (UniProt Q39578).
T1 sequence: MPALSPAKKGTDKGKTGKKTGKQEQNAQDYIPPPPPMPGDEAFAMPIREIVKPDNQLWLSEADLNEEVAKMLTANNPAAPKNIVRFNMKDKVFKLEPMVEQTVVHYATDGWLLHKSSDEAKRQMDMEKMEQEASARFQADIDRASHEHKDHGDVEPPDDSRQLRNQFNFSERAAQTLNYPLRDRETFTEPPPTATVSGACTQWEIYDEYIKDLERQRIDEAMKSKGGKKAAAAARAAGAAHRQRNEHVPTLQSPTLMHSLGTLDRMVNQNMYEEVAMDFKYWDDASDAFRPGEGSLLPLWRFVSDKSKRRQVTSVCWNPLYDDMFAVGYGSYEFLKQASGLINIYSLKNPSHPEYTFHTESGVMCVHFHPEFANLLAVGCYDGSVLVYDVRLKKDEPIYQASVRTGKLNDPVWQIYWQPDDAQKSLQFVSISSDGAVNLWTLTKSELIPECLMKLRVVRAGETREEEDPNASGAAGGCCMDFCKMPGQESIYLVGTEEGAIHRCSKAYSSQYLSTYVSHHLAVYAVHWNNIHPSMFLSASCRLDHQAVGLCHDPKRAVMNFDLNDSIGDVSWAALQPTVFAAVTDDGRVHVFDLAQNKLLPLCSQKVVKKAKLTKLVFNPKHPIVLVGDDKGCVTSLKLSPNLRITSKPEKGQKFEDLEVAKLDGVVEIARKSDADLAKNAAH
In words: cryo-EM structure; single-particle cryo-EM of the native ODA on doublet microtubules of splayed C. reinhardtii axonemes (splayed with 10 mM Mg-ATP and 750 μM CaCl2 in HMDEKP; 250 μM free Ca2+); apo, post-powerstroke state.

Assay [2] deals with ODA docking complex subunit DC2 (Chlamydomonas reinhardtii (endogenous in flagella, strain CC-1690)). The description is as above.

For “outer dynein arm light chain LC7a (Roadblock homolog)”, the binding entry in assay [1] was “binds”.

Regarding “outer dynein arm light chain LC7b (Roadblock homolog)”, the binding entry in assay [1] was “binds”.

Regarding outer dynein arm light chain LC8, the binding entry in assay [1] is recorded as “binds”.

B1: ODA docking complex subunit DC3 (calcium-binding) (protein, UniProt Q7Y0H2 1-184)
chain: MASAAARERYARKNEQNELERAFNTIDSKGDKKIDAEELTELFLRLGHKPKRGEVEDMIWEVDEDCDGCISLLEFQTLYTRCRDDKTGYEPRGLFNVVEFVMNDKNNQGFITLEEAMQIMYLRYGRAELDMQLEQVFGTADLNSGKILTLTEFLHCLHTNQVKQLLNRVTAKTYKAPPPPQKRK
As to B1, the binding entry in assay [2] is given as “binds”.
